Experimental data from PubChem BioAssay AID493014 (National Center for Advancing Translational Sciences (NCATS), 2011).
Some of the results follow. Shown are side measurements of this screen, not its main read-out; they come without a call. Compounds called inactive in the main read-out are mostly missing here. Words in brackets tell the shape of the fitted curve; partial curves, single points and poor fits give uncertain potencies.

Assay: qHTS Assay to Find Inhibitors of Chronic Active B-Cell Receptor Signaling
Details: ABC-DLBCL IkBa-CBG/CBR reporter, luminescence ratio (green luciferase fused to IkBa over red control in TMD8 lymphoma cells), 4 h
In short: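 Compounds up to 46 uM were incubated four hours with TMD8 cells whose green CBG68 luciferase is fused to IkappaBalpha; red CBR luminescence normalised the signal, and concentration-effect curves were fitted to fusion, red and ratio data.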

[1] = measured here: CBR red luminescence, cell number
[2] = measured here: IkBa-CBG green luminescence

With `O=C(NNC(=S)NC1CCCCC1)c1ccc(Cl)s1` the AC50 [1] was 7.08 µM [falling, partial curve, poor fit].

In the case of `Cc1ccc(-c2nnc(-c3ccccc3Br)o2)cc1`, the AC50 [1] is reported as 2.24 µM [rising, partial curve, poor fit].

In the case of `O=C(NNC(=O)c1cc(Cl)ccc1O)c1ccc(NS(=O)(=O)c2cccs2)cc1`, the AC50 [1] is reported as 9.2 µM [falling, partial curve].

In the case of `COc1cc(OC)cc(C(=O)Nc2ccc(Cn3ccnc3)cc2)c1`, the AC50 [1] is reported as 35.5 µM [falling, single point].

For `COc1ccc(C2=Nn3c([n+](C)c4ccccc43)SC2)cc1`, the AC50 [1] was 1.58 µM [rising, full curve, poor fit].

In the case of `Cc1ccc(/C=C2\SC(=S)N(CCC(=O)NNC(=O)c3ccncc3)C2=O)cc1`, the AC50 [1] is reported as 35.5 µM [falling, single point].

For `CC(C#N)(NC(=O)COC(=O)c1ccccc1NCCO)C1CC1` (centres undefined), the AC50 [1] was 25.9 µM [falling, single point].

With `COc1cccc(CC(C(=O)Nc2cc(C)ccc2C)c2nn[nH]n2)c1OC` (centres undefined) the AC50 [1] was 0.708 µM [falling, partial curve, poor fit].

With `Cn1c(SCc2c(F)cccc2Cl)nnc1-c1cccs1` the AC50 [1] was 13 µM [falling, single point].

For `Cc1cs/c(=N\N=C2CCCCC2)n1Cc1ccco1`, the AC50 [2] was 15.8 µM [falling, partial curve, poor fit].

In the case of `COc1ccc(CN2CCS(=O)(=O)CC2)cc1OC`, the AC50 [1] is reported as 6.31 µM [rising, partial curve, poor fit].

With `CC(Sc1n[nH]c(-c2ccccc2)n1)C(=O)c1c(N)n(C)c(=O)n(C)c1=O` (centres undefined) the AC50 [1] was 32.6 µM [rising, partial curve, poor fit].

With `Cc1c(C)c2ccc(OCC(=O)N3CCC(C(=O)O)CC3)cc2oc1=O` the AC50 [1] was 10 µM [falling, partial curve, poor fit].

For `Cc1cc(C(=O)N/N=C/c2ccc[nH]2)n[nH]1`, the AC50 [1] was 29.1 µM [falling, partial curve, poor fit].

In the case of `S=c1[nH]c(-c2ccccc2)cn1/N=C/c1ccccc1Br`, the AC50 [1] is reported as 12.6 µM [falling, partial curve].

For `C=CCn1cc(CN2CCC(C(=O)Nc3cccc(-c4cccc(Cl)c4)c3)CC2)c(C)n1`, the AC50 [1] was 11.2 µM [falling, partial curve].

With `CC(=O)Nc1cccc(-c2csc(NCc3ccco3)n2)c1` the AC50 [1] was 0.231 µM [rising, full curve, poor fit].

In the case of `O=C1C2CCCN2C(c2cccs2)N1c1ccc(Cl)cc1` (centres undefined), the AC50 [1] is reported as 12.6 µM [rising, partial curve].

For `CCNS(=O)(=O)c1ccc(NS(=O)(=O)c2cc(C)ccc2C)cc1`, the AC50 [1] was 29.1 µM [falling, single point].

With `COc1cccc(C(=O)Nc2ccccc2)c1` the AC50 [1] was 8.91 µM [falling, partial curve, poor fit].

In the case of `O=C(Nc1c2c(nn1-c1ccccc1)CS(=O)(=O)C2)c1ccc2c(c1)OCO2`, the AC50 [1] is reported as 3.98 µM [rising, full curve, poor fit].

With `Cc1cc(C)nc(NC(=O)c2cc(-c3ccc4c(c3)OCO4)nc3ccccc23)c1` the AC50 [1] was 0.794 µM [rising, full curve, poor fit].

With `O=c1c(Cl)c(N/N=C/c2ccc(Br)cc2)cnn1-c1ccccc1` the AC50 [1] was 16.4 µM [rising, single point].

In the case of `C=CC[C@H](CC(=O)N(CCO)Cc1ccccc1)C(=O)N[C@H](COC(=O)[C@@H](CC=C)CC(=O)OC(C)(C)C)Cc1c[nH]c2ccccc12`, the AC50 [1] is reported as 29.1 µM [falling, single point].

For `Cc1cccc(COc2ccccc2C(=O)OCC(=O)N(C)c2c(N)n(Cc3ccccc3)c(=O)[nH]c2=O)c1`, the AC50 [1] was 12.6 µM [falling, single point].

With `COc1ccccc1CNc1ncnc2c1nnn2C` the AC50 [1] was 22.4 µM [falling, single point].

In the case of `COc1ccc(C2C(C(=O)c3ccco3)=C(O)C(=O)N2CCN2CCOCC2)c(OC)c1` (centres undefined), the AC50 [1] is reported as 2.82 µM [rising, full curve, poor fit].

In the case of `CC(=O)Nc1ccc(S(=O)(=O)NCC(=O)OCC(=O)NCc2ccc3c(c2)OCO3)cc1`, the AC50 [1] is reported as 5.8 µM [rising, partial curve, poor fit].

For `COCCN(C(=O)CSc1nnc(-c2cccc(OC)c2)n1C)c1c(N)n(Cc2ccccc2)c(=O)[nH]c1=O`, the AC50 [1] was 35.5 µM [rising, single point].

With `Cc1ccccc1-c1nnn(Cc2cccc(S(=O)(=O)N3CCOCC3)c2)n1` the AC50 [1] was 29.1 µM [falling, partial curve, poor fit].

In the case of `O=C(N/N=C/c1ccccc1O)c1cc(=O)[nH]c2ccccc12`, the AC50 [1] is reported as 20.6 µM [rising, partial curve].

In the case of `CCOC(=O)N1CCN(C(=O)c2ccc3c(c2)N(Cc2ccc(C)cc2)CCS3)CC1`, the AC50 [1] is reported as 18.4 µM [falling, single point].

In the case of `CCCCC(=O)NNC(=S)NC(=O)c1ccc(C)cc1`, the AC50 [1] is reported as 17.8 µM [rising, single point].

For `Clc1ccc(/C=N/NC2=Nc3cccc4cccc2c34)cc1`, the AC50 [1] was 2.91 µM [rising, partial curve, poor fit] and the AC50 [2] was 8.2 µM [falling, partial curve, poor fit].

For `CC1=CC(c2ccccc2)=Nc2ccc(C)cc2N1`, the AC50 [1] was 23.1 µM [falling, partial curve, poor fit].

With `CCOC(=O)N1CCN(C(=O)c2cc3c(=O)[nH]c4ccccc4c3s2)CC1` the AC50 [1] was 1.64 µM [rising, full curve, poor fit].

For `CCn1c(SCC(=O)Nc2cc(C)c(Cl)cc2OC)nnc1-c1ccco1`, the AC50 [1] was 3.66 µM [rising, partial curve, poor fit].

For `COC(=O)c1[nH]c2c(c1C)C(=O)CC(c1cccs1)C2` (centres undefined), the AC50 [1] was 3.26 µM [rising, full curve].

For `CN(C)CCCN(C(=O)/C=C/c1cccs1)c1nc2ccc(F)cc2s1`, the AC50 [1] was 25.1 µM [falling, single point].

For `O=C(Nc1ccc(Cc2ccncc2)cc1)c1ccc(Cl)c([N+](=O)[O-])c1`, the AC50 [1] was 35.5 µM [falling, single point].

For `COc1ccc(/C=C/C(=O)Nc2cc(=O)n(C)c(=O)n2C)cc1`, the AC50 [1] was 6.51 µM [rising, full curve, poor fit].

With `O=C(NC(=S)Nc1ccc2oc(=O)ccc2c1)c1ccc(-c2cccc(Cl)c2Cl)o1` the AC50 [1] was 4.61 µM [falling, partial curve, poor fit].

With `CCN1CCN(CC(=O)N2c3ccccc3Sc3ccccc32)CC1` the AC50 [1] was 35.5 µM [rising, single point].

In the case of `CCC(C)OC(=O)n1ccc(C(=O)Nc2nccs2)n1` (centres undefined), the AC50 [1] is reported as 11.6 µM [falling, partial curve, poor fit].

In the case of `COC(=O)N/N=C\c1c(C)nn(-c2ccccc2)c1Cl`, the AC50 [1] is reported as 23.1 µM [falling, partial curve].

With `CCC(=O)NNc1ncnc2c1cnn2-c1ccc(C)c(Cl)c1` the AC50 [1] was 5.62 µM [falling, partial curve].

For `COC(=O)c1c(NC(=O)CN(c2ccc(C)c(C)c2)S(C)(=O)=O)sc2c1CCCC2`, the AC50 [2] was 32.6 µM [rising, partial curve, poor fit].

In the case of `COCCNC(=O)c1onc(CSc2ccccc2F)c1C(=O)O`, the AC50 [1] is reported as 11.2 µM [falling, partial curve, poor fit].

For `Fc1ccc(CNCc2cccc(Br)c2)cc1`, the AC50 [1] was 20.6 µM [rising, partial curve, poor fit].

For `COc1ccc(NC(=S)N/N=C/c2ccc(F)cc2)cc1OC`, the AC50 [1] was 15.8 µM [rising, partial curve, poor fit] and the AC50 [2] was 28.2 µM [falling, partial curve, poor fit].

For `Cc1cc(C)c(NC(=O)CN2C(=O)NC3(CCCCC3)C2=O)c(C)c1`, the AC50 [1] was 2.82 µM [rising, partial curve, poor fit].

With `Cc1c(CC(=O)NCC(=O)NCC(=O)O)c(=O)oc2cc3oc4c(c3cc12)CCCC4` the AC50 [1] was 35.5 µM [rising, single point].

With `O=C(CSC1=NCCS1)Nc1ccc(S(=O)(=O)N2CCCCCC2)cc1` the AC50 [1] was 35.5 µM [falling, single point].

In the case of `Cc1nc2ccccc2c(=O)n1/N=C/c1ccc(O)cc1O`, the AC50 [1] is reported as 22.4 µM [falling, single point].

In the case of `COc1ccccc1NC(=O)COc1cc(Br)c(CNCCCN2CCOCC2)cc1OC`, the AC50 [1] is reported as 12.6 µM [falling, single point].

For `CN(CCC#N)C(=O)COC(=O)c1ccc2[nH]c3c(c2c1)CCCC3`, the AC50 [2] was 7.94 µM [rising, partial curve, poor fit].

In the case of `COc1ccc(S(=O)(=O)N(C)CC(=O)NCCCn2ccnc2)cc1Cl`, the AC50 [1] is reported as 35.5 µM [rising, single point].

For `O=C(O)/C=C/C(=O)Nc1ccc(O)cc1`, the AC50 [1] was 0.224 µM [falling, full curve, poor fit].

For `COc1cccc(N2CCN(Cc3nc(N)nc(Nc4ccccc4OC)n3)CC2)c1`, the AC50 [1] was 0.461 µM [rising, full curve, poor fit].

In the case of `CC(=O)c1cccc(NC(=S)NC(=O)c2cccc(Cl)c2)c1`, the AC50 [1] is reported as 3.66 µM [rising, partial curve, poor fit].

With `O=C(COc1ccc(Br)cc1)Nc1nnc(-c2cccnc2)s1` the AC50 [1] was 3.16 µM [rising, single point].

With `Cc1cc(NC(=O)c2ccc(S(=O)(=O)Nc3ccccc3)cc2)no1` the AC50 [1] was 5.62 µM [falling, partial curve].
